Values from PubChem BioAssay AID743454 (Peter MacCallum Cancer Centre, 2014)
Here is a random part of about 18,000 deposited reagents. 450 of all reagents (2.5%) count as active. 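Single biological run; no consistent viability z cut-off exists, so the class columns, not z-scores, define the calls.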

Screen: 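Search for knock-downs that restore vorinostat killing in resistant colon cancer cells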 (primary screen)
Cells: human HCT116-VR colon cancer cells, selected for vorinostat resistance
Knock-down reagent: siRNA pool against human genes, 40 nM siRNA pool
Duration: vorinostat for 24 h, read-out about 72 h after transfection
Challenge: vorinostat at 2.5 µM final
Read-out: 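Two measures, CellTiter-Fluor viability and luminescent caspase 3/7 activity, each as fold change against same-plate mock wells, mean of duplicates, then screen-wide robust z-score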
Reading the numbers: viability robust z-score: higher = more viable cells than screen typical; caspase robust z-score: higher = more caspase 3/7 activity than screen typical
Call rule: 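a knock-down is a hit when classed RV1 or RV2 for lowered viability, or CA1 or CA2 for caspase activation; those lethal without drug were dropped; hits were retested singly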

gene,viability hit class,caspase hit class,viability robust z-score,caspase robust z-score,Call
POLR2B,no change,no change,-3.01,3.17,inactive
ATP9A,no change,no change,-0.31,-0.18,inactive
ZNF763,no change,no change,0.14,-1.23,inactive
GNPDA1,no change,no change,1.36,-0.55,inactive
C5orf34,no change,no change,-0.44,-0.18,inactive
ISOC1,no change,no change,1.63,-0.29,inactive
MAOB,no change,no change,0.55,0.13,inactive
CD300LF,no change,no change,1.6,0.26,inactive
PEF1,no change,no change,0.38,1.75,inactive
YIF1A,no change,no change,0.01,-0.08,inactive
CD248,no change,no change,-0.22,1.06,inactive
AKT1,no change,no change,-0.98,5.03,inactive
IDUA,no change,no change,-0.98,1.28,inactive
GRIN1,no change,no change,-0.84,-0.36,inactive
CD1B,RV2 (reduced viability),no change,-2.94,-0.56,active
EIF4A1,RV2 (reduced viability),no change,-3.01,-0.59,active
CLP1,no change,no change,-1.88,0.63,inactive
SLC60A1,no change,CA1 (caspase activation),1.38,6.13,active
USP31,no change,no change,-0.28,0.93,inactive
SLFN12,no change,no change,0.24,1.13,inactive
BRD7,no change,no change,-0.83,-0.46,inactive
RPL3,no change,no change,-5.46,-0.75,inactive
ADGRL2,no change,no change,-0.6,0.48,inactive
CD274,no change,no change,1.16,0.41,inactive
SERBP1,no change,no change,1.1,3.68,inactive
PLOD3,no change,no change,-1.9,-0.05,inactive
FBXO10,no change,no change,-2.09,3.25,inactive
UEVLD,RV2 (reduced viability),no change,-2.97,4.63,active
RGL4,no change,no change,-0.12,1.16,inactive
CSNK1E,no change,no change,-1.3,-0.75,inactive
MRPS24,no change,no change,-0.06,-0.2,inactive
SLC38A1,no change,no change,-1.03,1.66,inactive
OR5M8,no change,no change,0.3,0.48,inactive
TCF7L2,no change,no change,0.88,-0.22,inactive

In a second layout: entries from further up
IDUA | viability hit class: no change; caspase hit class: no change; viability robust z-score: -0.98; caspase robust z-score: 1.28; Call: inactive
GRIN1 | viability hit class: no change; caspase hit class: no change; viability robust z-score: -0.84; caspase robust z-score: -0.36; Call: inactive
CD1B | viability hit class: RV2 (reduced viability); caspase hit class: no change; viability robust z-score: -2.94; caspase robust z-score: -0.56; Call: active
EIF4A1 | viability hit class: RV2 (reduced viability); caspase hit class: no change; viability robust z-score: -3.01; caspase robust z-score: -0.59; Call: active
CLP1 | viability hit class: no change; caspase hit class: no change; viability robust z-score: -1.88; caspase robust z-score: 0.63; Call: inactive
SLC60A1 | viability hit class: no change; caspase hit class: CA1 (caspase activation); viability robust z-score: 1.38; caspase robust z-score: 6.13; Call: active
USP31 | viability hit class: no change; caspase hit class: no change; viability robust z-score: -0.28; caspase robust z-score: 0.93; Call: inactive
SLFN12 | viability hit class: no change; caspase hit class: no change; viability robust z-score: 0.24; caspase robust z-score: 1.13; Call: inactive
BRD7 | viability hit class: no change; caspase hit class: no change; viability robust z-score: -0.83; caspase robust z-score: -0.46; Call: inactive

Continued.
gene,viability hit class,caspase hit class,viability robust z-score,caspase robust z-score,Call
LILRB4,no change,no change,0.72,-0.09,inactive
ATXN1,no change,no change,0.27,0.3,inactive
CCDC14,no change,no change,0.22,-1.18,inactive
USP39,no change,no change,-1.9,1.43,inactive
ILKAP,no change,no change,0.59,0.37,inactive
MNS1,no change,no change,-0.66,-1.05,inactive
N4BP2L2,no change,no change,-0.88,0.26,inactive
TMEM102,no change,no change,-0.18,1.48,inactive
ETS2,no change,no change,0.38,1.98,inactive
OSBPL9,no change,no change,0.29,-0.23,inactive
OR10K2,no change,no change,0.5,0.52,inactive
SPA17,no change,no change,0.18,2.22,inactive
ZNF676,no change,no change,0.06,-0.2,inactive
TUFT1,no change,no change,-1.7,0.56,inactive
TEX30,no change,no change,1.08,0.58,inactive
TEKT1,no change,no change,0.22,-0.34,inactive
NISCH,no change,no change,0.96,0.38,inactive
SSC4D,no change,no change,-0.2,2.57,inactive
H6PD,no change,no change,0.2,3.13,inactive
HAPLN1,no change,no change,0.42,-0.17,inactive
MYADM,no change,no change,-0.08,-0.73,inactive
CLMB,no change,no change,1.15,0.68,inactive
TP63,no change,no change,-0.06,-0.3,inactive
